Results of single-concentration screens

By UniProt entry, the sequences of proteins in these tests, tags left out. Residues count along the entry.
UniProt Q8IDJ8, 1-583: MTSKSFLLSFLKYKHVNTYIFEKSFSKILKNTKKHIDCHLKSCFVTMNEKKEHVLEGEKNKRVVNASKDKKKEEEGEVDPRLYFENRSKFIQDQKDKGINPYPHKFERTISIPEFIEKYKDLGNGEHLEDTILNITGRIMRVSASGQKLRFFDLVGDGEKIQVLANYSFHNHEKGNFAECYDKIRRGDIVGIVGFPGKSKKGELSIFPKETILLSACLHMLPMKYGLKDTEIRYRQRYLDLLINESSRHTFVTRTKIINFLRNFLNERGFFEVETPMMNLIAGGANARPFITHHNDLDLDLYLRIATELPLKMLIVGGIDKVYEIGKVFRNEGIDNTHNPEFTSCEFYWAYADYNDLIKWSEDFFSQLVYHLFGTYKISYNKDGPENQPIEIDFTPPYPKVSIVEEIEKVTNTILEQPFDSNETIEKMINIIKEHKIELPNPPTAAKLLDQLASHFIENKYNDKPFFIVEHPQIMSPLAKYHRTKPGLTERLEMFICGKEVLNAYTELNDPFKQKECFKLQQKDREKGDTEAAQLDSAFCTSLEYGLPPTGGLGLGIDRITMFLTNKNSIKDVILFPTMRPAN
UniProt Q4DA54, 1-478: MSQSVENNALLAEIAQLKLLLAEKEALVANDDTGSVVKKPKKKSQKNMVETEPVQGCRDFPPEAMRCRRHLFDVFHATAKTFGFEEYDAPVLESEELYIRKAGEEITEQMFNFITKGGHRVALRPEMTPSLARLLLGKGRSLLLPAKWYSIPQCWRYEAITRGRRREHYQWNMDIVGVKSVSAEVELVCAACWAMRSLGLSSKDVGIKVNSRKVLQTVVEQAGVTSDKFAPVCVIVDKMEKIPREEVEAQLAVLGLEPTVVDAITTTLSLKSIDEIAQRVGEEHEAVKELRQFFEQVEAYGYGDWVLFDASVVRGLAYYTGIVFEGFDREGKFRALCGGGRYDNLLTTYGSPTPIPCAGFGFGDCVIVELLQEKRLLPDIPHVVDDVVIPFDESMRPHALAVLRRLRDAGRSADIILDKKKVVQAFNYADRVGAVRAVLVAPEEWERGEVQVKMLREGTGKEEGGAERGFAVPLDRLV
UniProt I6X8D2, whole entry: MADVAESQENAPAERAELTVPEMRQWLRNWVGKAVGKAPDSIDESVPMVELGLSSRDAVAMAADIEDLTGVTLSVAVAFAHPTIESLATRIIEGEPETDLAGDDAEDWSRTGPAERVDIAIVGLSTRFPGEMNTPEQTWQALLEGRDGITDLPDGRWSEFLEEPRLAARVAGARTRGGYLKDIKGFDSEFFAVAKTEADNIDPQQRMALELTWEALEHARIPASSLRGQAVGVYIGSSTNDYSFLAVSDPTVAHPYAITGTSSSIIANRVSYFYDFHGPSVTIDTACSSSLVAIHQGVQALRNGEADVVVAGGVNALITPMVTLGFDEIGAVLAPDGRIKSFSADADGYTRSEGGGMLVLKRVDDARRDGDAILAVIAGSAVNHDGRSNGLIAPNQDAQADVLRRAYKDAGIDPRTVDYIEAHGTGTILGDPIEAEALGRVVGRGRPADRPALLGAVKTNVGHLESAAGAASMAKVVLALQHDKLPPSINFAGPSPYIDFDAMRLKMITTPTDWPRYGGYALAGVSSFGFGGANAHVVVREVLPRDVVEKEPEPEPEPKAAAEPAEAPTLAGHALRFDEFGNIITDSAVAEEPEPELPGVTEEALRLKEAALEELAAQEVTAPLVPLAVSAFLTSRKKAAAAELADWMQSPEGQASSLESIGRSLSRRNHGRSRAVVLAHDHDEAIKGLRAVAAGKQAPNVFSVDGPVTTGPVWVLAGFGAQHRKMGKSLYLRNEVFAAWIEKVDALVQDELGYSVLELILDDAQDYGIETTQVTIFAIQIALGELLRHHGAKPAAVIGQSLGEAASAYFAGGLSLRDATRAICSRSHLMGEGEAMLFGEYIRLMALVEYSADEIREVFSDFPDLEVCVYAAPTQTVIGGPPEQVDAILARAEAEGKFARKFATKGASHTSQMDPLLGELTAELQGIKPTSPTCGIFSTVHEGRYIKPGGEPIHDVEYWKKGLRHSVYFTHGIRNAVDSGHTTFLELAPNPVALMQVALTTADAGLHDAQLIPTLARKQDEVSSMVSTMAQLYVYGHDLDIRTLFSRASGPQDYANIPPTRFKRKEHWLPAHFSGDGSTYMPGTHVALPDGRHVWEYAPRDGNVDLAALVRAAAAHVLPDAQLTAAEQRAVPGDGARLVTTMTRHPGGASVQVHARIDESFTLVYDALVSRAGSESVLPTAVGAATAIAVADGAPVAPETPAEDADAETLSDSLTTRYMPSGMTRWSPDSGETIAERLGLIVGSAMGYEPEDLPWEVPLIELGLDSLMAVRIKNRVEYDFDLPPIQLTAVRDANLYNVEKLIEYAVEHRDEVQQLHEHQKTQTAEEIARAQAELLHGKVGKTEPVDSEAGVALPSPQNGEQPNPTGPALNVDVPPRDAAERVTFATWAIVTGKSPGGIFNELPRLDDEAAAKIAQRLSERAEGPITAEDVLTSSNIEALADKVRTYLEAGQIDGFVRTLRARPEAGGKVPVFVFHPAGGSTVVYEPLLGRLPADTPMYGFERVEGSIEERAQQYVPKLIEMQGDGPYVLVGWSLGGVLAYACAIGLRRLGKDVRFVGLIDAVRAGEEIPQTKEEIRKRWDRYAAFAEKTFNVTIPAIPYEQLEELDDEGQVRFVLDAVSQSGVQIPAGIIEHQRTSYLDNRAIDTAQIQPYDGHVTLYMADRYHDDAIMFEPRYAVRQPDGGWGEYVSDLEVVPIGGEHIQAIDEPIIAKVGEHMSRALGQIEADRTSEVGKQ

A: 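Enzyme assay of the cytosolic lysyl-tRNA synthetase in 384-well plates, read by luminescence. Target: Lysine-tRNA ligase, Plasmodium falciparum 3D7 (UniProt Q8IDJ8). Concentration: 30 µM. Higher reads as stronger inhibition, judged from the few compounds that gave an IC50. Size under these conditions: about 69,000 compounds, about 49 of them at 50% or above in at least one test.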
B: 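Enzyme assay of histidyl-tRNA synthetase; the read-out is not stated. Target: Histidine-tRNA ligase, Trypanosoma cruzi CL Brener (UniProt Q4DA54). Compounds at 30 µM. Higher reads as stronger inhibition (inferred: compounds with an IC50 in retests scored well above the rest). Of about 69,000 compounds tested this way, about 31 (0.045%) reached 50% or more in at least one test.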
C: 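Cell assay of Leishmania donovani living inside macrophages; the read-out is not stated. Concentration: 30 µM. Direction is inferred from retests: higher values go with stronger inhibition. Size under these conditions: about 69,000 compounds, about 1,000 of them at 50% or above in at least one test.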
D: 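Polyketide synthase Pks13, Mycobacterium tuberculosis (UniProt I6X8D2). Enzyme assay of the thioesterase domain of polyketide synthase 13; the read-out is not stated. Compounds at 30 µM. The record gives no direction; the compounds picked for IC50 retests had high values, so higher reads as stronger inhibition. About 67,000 compounds were tested under these conditions; 0.46% (about 300) showed 50% or more at least once.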

The filed quantity is “Percent Effect” (%).
The controls that fix the scale are not given in the record; negative values are as filed.
The compounds are a random part of those screened.
Two or more numbers in one place are separate tests of the same structure; such repeats can differ widely.
A dash means the value is not listed here; it may have been measured.

SMILES,A,B,C,D
O=C(CCc1ccc(Cl)s1)NCc1nnc2n1CCCCC2,0.635,1.734,20.96,-9.538
COCCNC(=O)N1CCN(C(=O)Cc2ccccc2F)CC1,0.5011,8.287,4.711,-33.19
COc1ccc(N(C(=O)c2ccccn2)C(C)C)cc1F,3.928,10.5,-0.3543,-22.92
N#CC1(c2ccccc2)CCN(C(=O)C2CCCN(C(N)=O)C2)CC1 (stereo not drawn),2.95,12.65,-57.06,-3.434
CN(C)C(=O)CN1CCCC1c1nc(N)ncc1-c1ccc(F)cc1 (stereo not drawn),-1.696,3.745,11.11,-14.41
Cc1nccn1CC1CCCN1S(=O)(=O)Cc1ccon1 (stereo not drawn),5.772,0,11.84,-31.85
COCC(=O)N1CCC2(CC(C(=O)NCc3cccnc3)=NO2)C1 (stereo not drawn),3.475,1.961,11.22,-33.25
COc1ccc(Cl)cc1CN(C)CC(=O)/N=c1\cc[nH]n1C(C)C1CC1 (stereo not drawn),1.772,10.71,20.09,-32.07
COc1ccc(CNC(=O)NCc2cc(C)oc2C)cc1,2.932,-1.111,11.14,-25.01
[H][C@]1([C@H](O)c2ccc(NC(=O)COC)cc2)COCC(=O)N1CC,-,-,1.367,-
Cc1ccc(NC(C(N)=O)c2ccc(F)cc2)cc1 (stereo not drawn),3.025,-0.4425,20.96,-25.13
CN(CC1CN(Cc2cn3ccsc3n2)CCO1)c1cccnn1 (stereo not drawn),-0.7801,0.3774,43.6,-20.99
CCCNC(=O)c1cc2c(nc1O)CCC(C)C2 (stereo not drawn),0.4548,-0.5464,-3.593,-24.6
CCN(C(=O)c1ccc2nnc(C3CCN(C(C)=O)C3)n2c1)C(C)C (stereo not drawn),3.981,7.216,4.652,-9.34
Cc1n[nH]c(C)c1C1COCCN1C(=O)c1ccccc1 (stereo not drawn),0.3517,3.817,-10.98,-6.422
CCOCC(=O)Nc1cccnc1-n1ccnc1C,9.147,12.95,-4.37,-8.194
COCC(=O)N1CC[C@@H]2O[C@@H](C)C[C@H]2C1,2.956,6.863,-,-8.306
c1ccc(O[C@@H]2CC[C@H]3[C@H]2OCCN3CC2CCOCC2)nc1,3.598,8.824,-,20.08
CCOC(=O)[C@]12CCCN(Cc3nccs3)C[C@H]1CN(S(C)(=O)=O)C2,1.641,6.452,-,-7.431
Cc1c(F)cc(C(=O)NCC(F)(F)F)cc1NCC(=O)N(C)C,-1.75,-3.191,-4.514,42.48
O=C(CC1CC1)N1Cc2nccn2CC(COc2cccnc2)C1 (stereo not drawn),-6.557,3.81,-12.22,-24.75
FC(F)Oc1ccc(CNCc2cc(Br)c3c(c2)OCO3)cc1,-0.5539,3.743,23.28,-7.571
CNc1ncc2c(n1)CN(CCc1ccc(F)cc1)C2=O,9.219,3.125,2.634,-16.14
Cc1noc(-c2cccnc2N(C)Cc2ccc([S+](C)[O-])cc2)n1 (stereo not drawn),0.2329,2.521,17.34,-7.242
Cn1nc2c(cc1=O)CN(Cc1nnc(C3CC3)o1)CC2,28.77,6.107,7.886,-4.969
CC(C)(C)OC(=O)N1CCC[C@H](NCC2=CCCOC2)C1,0.4035,-1.299,25.76,-25.18
Cc1nc2cc(=O)[nH]n2c(C)c1CC(=O)NCc1ccc(C#N)cc1,-0.05337,8.824,6.728,-3.575
O=C(O)C(F)(F)F.O=C(O)C(F)(F)F.[H][C@@]12COC[C@]1(C(=O)NCc1ccccn1)CN(Cc1scnc1C)C2,-,-,-17.29,-
[H][C@@]12CN(Cc3c[nH]c4ccccc34)C[C@]1([H])OCC(=O)N2,-,-,0.3074,-
[H][C@@]12CNC[C@@]1([H])N(CC1CC1)C(=O)CO2,-,-,12.91,-
O=C(c1cccnc1)N1CC[C@H](OCC2CC2)[C@@H]1Cc1cccnc1,8.97,0.5405,-,-8.222
CC(C(=O)NCc1cccs1)N1CCN(Cc2nccn2C)CC1 (stereo not drawn),-1.619,8.374,-30.83,22.4
O=C(c1cnn[nH]1)N(CCCO)Cc1cccnc1,2.784,4.255,5.232,-132.3
CN(C)C1CCC2(CCN(Cc3cccnc3)CC2)c2ccccc21 (stereo not drawn),3.219,2.222,-,-34.19
CC(C)CNC(=O)[C@H]1CCS(=O)(=O)[C@@H]2CN(CC(C)C)C[C@H]12,1.713,-2.804,-,-2.535
O=C(O)C1c2nc[nH]c2CCN1Cc1ccccc1-c1ccccc1 (stereo not drawn),3.433,2.941,-1.12,62.29
Cc1ccc(CN(CCN(C)C)C(=O)Nc2cnn(C)c2)s1,1.848,5.319,22.08,-24.46
Cc1cc(CN2CCC(CNS(=O)(=O)c3ccc(C)s3)CC2)c(C)o1,4.073,-5.699,7.284,-13.54
O=C(NC1CC1)C1CNCCN1C(=O)CCc1ccc2c(c1)OCO2 (stereo not drawn),1.67,5.946,15.91,-26.19
Cc1nc2n(n1)CC(NCc1nnc(C(C)(C)C)o1)CC2 (stereo not drawn),4.054,-2.564,19.5,1.995
Cc1ccc(CN2C[C@H]3CN(CC4CCN(C)CC4)C(=O)[C@H]3C2)s1,3.373,2.913,-,-8.382
CN(Cc1ccco1)C(=O)NCc1ccnc(SC(C)(C)C)c1,2.227,-1.02,10.46,-13.99
O=C1CCC2(CCN(c3ncc(F)cn3)CC2)N1CCN1CCCC1,-7.014,5.435,10.62,-10.48
COCC(O)CN1CCC(=O)N(CC(=O)C(C)(C)C)Cc2ccccc21 (stereo not drawn),4.848,12.36,-1.544,19.52
CCc1nccn1CC(=O)N1CCN(C2CCc3ccccc3C2)CC1 (stereo not drawn),10.31,3.261,14.59,-27.73
CN1CC[C@]2(CN(CC3CCOC3)C[C@H]2c2ccccc2)C1=O.O=C(O)C(F)(F)F (stereo partly drawn),-,-,7.373,-
COC(=O)c1ccc(-c2cc(C(F)(F)F)cc(N(C)C)n2)cc1,3.505,5.208,-3.277,-3.114
CC(CNS(=O)(=O)c1cccc(Cl)c1)N1CCN(C)CC1 (stereo not drawn),-0.9117,4.167,-11.07,-13.58
Cc1cccc(-c2nc(N)nc3c2CN(C(=O)C2CCCC2)C3C)c1 (stereo not drawn),5.802,-28.87,-3.744,4.149
COc1ccccc1OCCC(=O)NCc1ncc(C)c(OC)c1C,4.75,9.524,2.504,-11.48
Cc1ccc(S(=O)(=O)Nc2ccc(-n3nnn(C)c3=O)cc2)cc1,6.168,4.124,-8.073 & 19.18,-3.623
Cc1cccc(NS(=O)(=O)c2cnn(C)c2)c1C#N,0.5992,6.077,33.18,-23.83
CCn1ccnc1CN1CCCN(C(=O)Cc2csc(C)n2)CC1,-1.889,5.413,-6.567,-20.18
CC(C)NC(=O)CC(C)NCc1ccc(F)cc1Cl (stereo not drawn),0.8695,2.809,0.9387,-26.05
CC(C)c1nn(C)c(N(C)C)c1CNCc1cccc(CN(C)C)c1,1.005,0,-,-3.503

The last 4 entries again:

Result for Cc1cccc(NS(=O)(=O)c2cnn(C)c2)c1C#N was A: 0.5992%; B: 6.077%; C: 33.18%; D: -23.83%.
Result for CCn1ccnc1CN1CCCN(C(=O)Cc2csc(C)n2)CC1 was A: -1.889%; B: 5.413%; C: -6.567%; D: -20.18%.
Result for CC(C)NC(=O)CC(C)NCc1ccc(F)cc1Cl (stereo not drawn) was A: 0.8695%; B: 2.809%; C: 0.9387%; D: -26.05%.
Result for CC(C)c1nn(C)c(N(C)C)c1CNCc1cccc(CN(C)C)c1 was A: 1.005%; B: 0%; D: -3.503%.

The values are deposited in ChEMBL (CHEMBL3988442, “University of Dundee, Small-Polar-MMV Screening Library” (2021)).